From patent US7060795 (KIMBERLY CLARK WORLDWIDE, dated 2006)
Results are given in words; binding and its absence hold for the method and conditions named. Some entries that bind do so weakly or less than the wild type.

Sequences of proteins named here, by UniProt entry; tags and fusion partners are left off. Residues count along the entry.
UniProt P14780, residues 107-707: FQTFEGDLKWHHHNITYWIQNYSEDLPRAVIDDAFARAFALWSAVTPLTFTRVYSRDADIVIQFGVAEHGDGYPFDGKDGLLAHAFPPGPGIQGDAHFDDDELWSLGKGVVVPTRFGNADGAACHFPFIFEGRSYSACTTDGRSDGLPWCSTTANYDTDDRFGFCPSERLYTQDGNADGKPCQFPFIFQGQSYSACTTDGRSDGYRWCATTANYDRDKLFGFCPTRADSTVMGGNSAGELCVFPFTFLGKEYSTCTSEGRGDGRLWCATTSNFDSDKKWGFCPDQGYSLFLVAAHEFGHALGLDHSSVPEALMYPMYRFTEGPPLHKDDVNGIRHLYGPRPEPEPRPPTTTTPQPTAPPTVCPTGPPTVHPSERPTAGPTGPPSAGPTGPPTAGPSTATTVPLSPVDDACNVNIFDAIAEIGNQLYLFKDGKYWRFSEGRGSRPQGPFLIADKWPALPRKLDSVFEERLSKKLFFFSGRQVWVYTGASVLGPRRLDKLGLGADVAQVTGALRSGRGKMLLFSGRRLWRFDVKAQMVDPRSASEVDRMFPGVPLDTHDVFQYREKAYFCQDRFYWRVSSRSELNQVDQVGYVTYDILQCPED

Tests used:
[1] = molecular target: matrix metalloproteinase-9 (MMP-9) (UniProt P14780); experiment: size exclusion HPLC (figure legend)
[2] = molecular target: matrix metalloproteinase-9 (MMP-9) (UniProt P14780); experiment: SPR, MMP-9 on CM-5 chip (figure legend)
MMP-2 = experiment: inhibition of hydrolysis of fluoresceinated collagen, Ki from Dixon plots
MMP-3 = experiment: as above
MMP-8 = experiment: as above
[3] = molecular target: matrix metalloproteinase-9 (MMP-9) (UniProt P14780); experiment: SPR (BiaCore, CM-5 chip), MMP-9 immobilised, SEQ ID NO:5 polypeptide flowed at 10 uL/min
[4] = molecular target: matrix metalloproteinase-9 (MMP-9) (UniProt P14780); experiment: analytical gel filtration of the pre-formed complex (BioSelect 125); single species of 80 kDa apparent molecular weight
[5] = molecular target: matrix metalloproteinase-9 (MMP-9) (UniProt P14780); experiment: analytical gel filtration (BioSelect 125 SEC column, PBS, 0.5 mL/min) after 30 min pre-incubation, against immediate injection

Measured: binding

B1: SEQ ID NO:5 polypeptide (DST; Delta Synthetic TIMP), purified Fraction IV protein (designed binder)
chain: CSCSPVHPQQAFSNADVVIRAKAVSEKEVDSGNDIYGNPIKRIQYEIKQIKMFKGPEKDIEFIYTAPSSAVCGVSLDVGGKKEYCIAGKAEGDGKMHITLCDFICPW
notes: It was expressed in E. coli as an MBP fusion and cleaved with Factor Xa; It is monomeric by gel filtration; Three disulfide bonds; also called DST protein
binds: [1] | [2] | MMP-2 | MMP-3 | MMP-8 | [3] | [4] | [5]
